# Assay results taken from PubChem BioAssay AID540276 (National Center for Advancing Translational Sciences (NCATS), 2011).
# The whole screen tested about 300,000 compounds, of which about 5,400 (1.8%) were called active. The shares of active, inactive and inconclusive entries below differ from those in the screen. The call rests on the fitted dose curve; tested in HEK293 cells. Potencies of inconclusive entries are doubtful fits and often do not repeat.
# Test: qHTS for inhibitors of binding or entry into cells for Marburg Virus
# Conditions: Marburg virus pseudotyped entry inhibition, cell reporter; series mostly up to 37.8 µM
# Potency means the concentration at half of the fitted maximal effect.
row,Structure (SMILES),Potency
1,COc1ccc(S(=O)(=O)NCCCO)cc1-c1nnc2c3ccccc3c(C)nn12,inactive
2,COc1ccc(C(C)=O)cc1COc1ncnc2ccccc12,inactive
3,Cc1cc(C(=O)Nc2ccc(Br)cc2F)n(-c2ccccc2)n1,inactive
4,CC(C)(C)n1ncc2c(=O)n(CC(=O)NCc3ccccc3)cnc21,"inconclusive: 7.08 µM [inhibitor, partial curve]"
5,CC(C)CNc1oc(-c2ccccc2Cl)nc1C#N,inactive
6,CCn1cnc2cc(NCc3ccc(Br)cc3)ccc21,"inconclusive: 7.08 µM [activator, partial curve, poor fit]"
7,CC1CN(CC(=O)Nc2cccc(C(=O)Nc3cccc(C(F)(F)F)c3)c2)CC(C)O1 (centres undefined),"inconclusive: 28.2 µM [inhibitor, single point]"
8,COc1ccc(-c2c3c(=O)n(C)c(=O)n(C)c3c3c(-c4cccc(C)c4)nc4ccccc4n23)cc1,"inconclusive: 0.562 µM [activator, partial curve, poor fit]"
9,Cc1ccc(NC(=O)CSCc2ccco2)cc1,inactive
10,COc1ccc(-c2csc3nc(-c4cccnc4)nc(N4CCC(C(N)=O)CC4)c23)cc1OC,"inconclusive: 9.2 µM [inhibitor, partial curve, poor fit]"
11,C=CCc1cccc(C=NNC(=O)CN2CCN(Cc3ccccc3)CC2)c1O,"inconclusive: 20.6 µM [inhibitor, single point]"
12,CC(C)OCCCNC(=O)c1cc(-c2cccs2)nc2ccccc12,"inconclusive: 7.08 µM [inhibitor, full curve, poor fit]"
13,Cc1cc(OCCCC(=O)NCCN2C(=O)S/C(=C\c3cccnc3)C2=O)ccc1Cl,"inconclusive: 2.51 µM [inhibitor, partial curve, poor fit]"
14,CCOc1ccc(C(=O)NC(=S)N(Cc2ccccc2)Cc2ccccc2)cc1,"inconclusive: 29.1 µM [inhibitor, single point]"
15,COc1ccc(S(=O)(=O)N2CCCC2CNC(=O)C(=O)NCc2cccs2)cc1 (centres undefined),"inconclusive: 14.1 µM [inhibitor, partial curve, poor fit]"
16,CCc1ccccc1NC(=O)c1ccc2snnc2c1,"inconclusive: 5.62 µM [activator, partial curve, poor fit]"
17,COc1cccc(NC(=O)CSc2nc3cc(OC)c(OC)cc3c3nc(-c4ccccc4)nn23)c1,"inconclusive: 3.16 µM [inhibitor, partial curve, poor fit]"
18,O=S(=O)(Nc1ccc2nc(-c3ccco3)[nH]c2c1)c1ccccc1,"inconclusive: 2.06 µM [activator, partial curve, poor fit]"
19,Cc1nnc(Sc2cc(C(=O)NCc3ccco3)c3ccccc3n2)s1,inactive
20,O=C(Nc1nc2ccccc2[nH]1)c1ccccc1,"inconclusive: 7.08 µM [inhibitor, partial curve, poor fit]"
21,Cc1ccc(NC(=O)c2c(C)noc2-c2snnc2C)cc1,"inconclusive: 31.6 µM [inhibitor, single point]"
22,O=C(NC(=S)Nc1cccnc1)c1cc2ccccc2o1,"inconclusive: 7.31 µM [activator, partial curve, poor fit]"

row,Structure (SMILES),Potency
1,Cc1csc(NC(=O)CCc2nc3ccccc3s2)n1,"inconclusive: 25.1 µM [inhibitor, single point]"
2,CCCOc1ccc(-c2c(C(=O)N/N=C(\C)c3ccncc3)nnn2-c2nonc2N)cc1,"inconclusive: 20 µM [inhibitor, single point]"
3,COc1ccc(N=CC2=C(O)CC(C)(C)CC2=O)cc1,inactive
4,CCOc1ccc(-n2nc3c(Cl)nnc(C)c3c2C)cc1,inactive
5,COC(=O)c1ccccc1NC(=O)c1ccc2nccnc2c1,"inconclusive: 35.5 µM [inhibitor, single point]"
6,CC(=O)OC[C@H]1O[C@H](c2cc(C)cc(C)c2)C=C[C@H]1OC(C)=O,"inconclusive: 1.19 µM [activator, single point]"
7,CCc1cccc(-n2c(C)nc3c(cnn3-c3ccc(C)c(C)c3)c2=O)c1,"inconclusive: 35.5 µM [inhibitor, single point]"
8,O=[N+]([O-])c1ccc(N2N=C(c3ccco3)CC2c2ccccc2)cc1 (centres undefined),"inconclusive: 0.282 µM [inhibitor, full curve, poor fit]"
9,Cc1nc(C)c(C(=O)OCC(=O)Nc2cccc(C)c2C)s1,"inconclusive: 5.62 µM [inhibitor, single point]"
10,CCC(c1ccccc1)c1nc(-c2ccccn2)no1 (centres undefined),"inconclusive: 35.5 µM [activator, single point]"
11,COc1ccccc1N1CCN(C(=O)c2ccc(S(=O)(=O)N3CCCCC3)cc2)CC1,"inconclusive: 1.41 µM [activator, partial curve, poor fit]"
12,Cc1cc(C)n(C(=O)c2ccc(S(=O)(=O)NCC3CCCO3)cc2)n1 (centres undefined),"inconclusive: 5.01 µM [inhibitor, full curve, poor fit]"
13,CC(C)Oc1cccc(C(=O)Nc2ncn[nH]2)c1,inactive
14,Cc1ccc(-c2nnc(N3CCN(C(=O)COc4ccccc4)CC3)c3ccccc23)cc1,"inconclusive: 29.1 µM [inhibitor, single point]"
15,CCc1ccccc1NC(=O)Nc1ccc2c(c1)N(CC)C(=O)c1ccccc1S2,inactive
16,COc1ccc(OC)c(NC(=O)c2cc(-c3cc(C)cc(C)c3O)n[nH]2)c1,"inconclusive: 35.5 µM [inhibitor, single point]"
17,CSC1=NC(=O)/C(=C/c2ccc(SC)cc2)S1,inactive
18,Cc1cc(-c2ccccc2C(=O)O)on1,inactive
19,O=C(NCCC1=CCCCC1)c1ccc(Br)o1,"inconclusive: 0.411 µM [inhibitor, partial curve, poor fit]"
20,O=C(CN1CCC(C(=O)c2ccc(Cl)cc2)CC1)Nc1ccc2c(c1)OCCO2,"inconclusive: 0.206 µM [activator, full curve]"
21,CCN(C(=O)c1coc(=O)c(Br)c1)c1ccc2c(c1)OCO2,inactive
22,Cc1nc2c(c(=O)c3ccccc3n2C)c(=O)n1-c1ccccc1,inactive

# Copied from the list:
# In Potency, CSC1=NC(=O)/C(=C/c2ccc(SC)cc2)S1 shows inactive
# In Potency, COc1ccc(N=CC2=C(O)CC(C)(C)CC2=O)cc1 shows inactive
# In Potency, Cc1nc2c(c(=O)c3ccccc3n2C)c(=O)n1-c1ccccc1 shows inactive
# In Potency, Cc1nc(C)c(C(=O)OCC(=O)Nc2cccc(C)c2C)s1 shows inconclusive: 5.62 µM [inhibitor, single point]
